According to article PMC8490708:
Results are given in words; binding and its absence hold for the method and conditions named. In cells and extracts the contact can be indirect. Binding can be weak; no strength is given. Sequences can lack the tags named with a protein.

Biological target: T1, CBX4-YFP (human) (UniProt O00257)
T1 sequence: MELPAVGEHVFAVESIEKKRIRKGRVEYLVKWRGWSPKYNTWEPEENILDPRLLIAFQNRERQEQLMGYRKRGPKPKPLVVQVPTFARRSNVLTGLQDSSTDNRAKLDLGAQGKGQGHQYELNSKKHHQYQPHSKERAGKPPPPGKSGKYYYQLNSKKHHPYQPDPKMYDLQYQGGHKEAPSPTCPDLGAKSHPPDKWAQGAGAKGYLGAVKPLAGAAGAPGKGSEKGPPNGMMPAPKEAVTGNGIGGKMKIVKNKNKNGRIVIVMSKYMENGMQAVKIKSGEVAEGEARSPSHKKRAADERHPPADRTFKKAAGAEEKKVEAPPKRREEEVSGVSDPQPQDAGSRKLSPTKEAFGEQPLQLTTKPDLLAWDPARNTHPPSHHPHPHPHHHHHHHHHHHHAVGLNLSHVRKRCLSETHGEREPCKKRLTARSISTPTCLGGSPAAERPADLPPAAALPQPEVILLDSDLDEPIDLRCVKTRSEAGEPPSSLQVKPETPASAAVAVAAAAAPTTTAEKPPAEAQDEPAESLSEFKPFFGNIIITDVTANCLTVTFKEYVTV
Test: pull-down; GFP-Trap co-pulldown: YFP-tagged bait and HA-tagged prey co-transfected in HEK 293FT cells; lysate (150 mM NaCl, 1% NP-40, 0.5% Triton X-100) with GFP-Trap resin overnight at 4°C; washes with 300 mM NaCl; Western blot

“SALL1^826-2xHA (human) (domain or fragment)” was tested, and the binding was “binds”.
